Experimental data: PubChem BioAssay AID1259254 (NCATS, 2017)
In all, the deposit lists about 59,000 reagents; this is a part drawn at random. Over the whole deposit, about 1,550 (2.6%) got an active call. 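G2 share is only a proxy for re-replication; each gene was hit by three separate siRNAs, and active genes were retested.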 Raw values are not corrected between plates. Reagents against one gene are numbered here. The record does not give: the amount of reagent.

- Assay: 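Finding genes that stop cells copying their DNA twice in one cycle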 (primary screen)
- Cell system: human HCT116 colorectal cancer cells
- Reagents: single siRNA against human genes
- Timing: 3 days
- Measurement: 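Imaged Hoechst DNA stain sorts each cell into a cycle phase by DNA amount; per plate, G2 fraction set to 0% for non-targeting and 100% for GMNN siRNA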
- Direction: G2 robust z-score and G2 cells, % of GMNN control: higher = more G2 cells, more excess DNA replication; raw share of cells in G2: higher = larger share of cells with G2 DNA content
- Hit rule: 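An siRNA counts as active if its G2 robust z-score lies at least 5 MADs above the screen median; here such calls match roughly 38% of GMNN control or more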

The first 3 entries, ahead of the listing:
target gene	siRNA no.	G2 robust z-score	G2 cells, % of GMNN control	raw share of cells in G2 (%)	outcome
BAALC	1	1.12	10.8	8.94	inactive
BAALC	2	0.03	3.18	5.69	inactive
BAALC	3	0.258	4.78	3.68	inactive

Main list, from the start:
target gene	siRNA no.	G2 robust z-score	G2 cells, % of GMNN control	raw share of cells in G2 (%)	outcome
BAALC	1	1.12	10.8	8.94	inactive
BAALC	2	0.03	3.18	5.69	inactive
BAALC	3	0.258	4.78	3.68	inactive
OR52H1	1	0.951	9.66	7.08	inactive
OR52H1	2	-0.727	-2.15	2.47	inactive
OR52H1	3	1.93	16.6	11.7	inactive
LOC646670 (retired record)	1	0.7	7.89	6.75	inactive
LOC646670 (retired record)	2	1.27	11.9	7.64	inactive
LOC646670 (retired record)	3	-0.397	0.171	3.1	inactive
LINC00639	1	-0.179	1.71	4.26	inactive
LINC00639	2	0.841	8.89	6.48	inactive
LINC00639	3	-0.336	0.603	3.45	inactive
RNF41	1	-0.527	-0.744	4.99	inactive
RNF41	2	8.92	65.7	31.4	active
RNF41	3	0.646	7.51	6.14	inactive
BMP2KL	1	4.62	35.5	16.2	inactive
BMP2KL	2	-0.00179	2.95	4.55	inactive
BMP2KL	3	0.33	5.29	6.32	inactive
ING1	1	0.181	4.24	6.83	inactive
ING1	2	-0.676	-1.79	2.75	inactive
ING1	3	2.44	20.1	10.4	inactive
ZC2HC1A	1	-0.644	-1.56	2.76	inactive
ZC2HC1A	2	-1.03	-4.25	2.23	inactive
ZC2HC1A	3	-0.554	-0.929	4.2	inactive
BLZF1	1	1.79	15.6	12	inactive
BLZF1	2	2.52	20.7	12.1	inactive
BLZF1	3	2.82	22.8	11.4	inactive
CIMIP2C	1	0.0418	3.26	5.11	inactive
CIMIP2C	2	1.87	16.1	10.3	inactive
CIMIP2C	3	0.237	4.64	6.06	inactive
